Small differences around the control level are noise.
Key:
Test in all cases: normalised response (% of control), CellTox Green; higher = less cell death (100 = DMSO, 0 = benzethonium chloride kill control)
Settings in all cases: incubation time: 72 h
HCC1599 [1] = test system: HCC1599
Method: (§1)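 DSRT, 72 h incubation, CellTox Green / CellTiter-Glo readout. Signal is normalised to DMSO and benzethonium chloride controls. Value is the normalised response at dose 2.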

MDA-MB-436 [2] = test system: MDA-MB-436
Method: as §1

BT-474 [3] = test system: BT-474
Method: as §1

HCC1143 [4] = test system: HCC1143
Method: as §1

MDA-MB-468 [5] = test system: MDA-MB-468
Method: as §1

MDA-MB-231 [6] = test system: MDA-MB-231
Method: as §1

CAL-51 [7] = test system: CAL-51
Method: as §1

DU-4475 [8] = test system: DU-4475
Method: as §1

MFM-223 [9] = test system: MFM-223
Method: as §1

BT-549 [10] = test system: BT-549
Method: as §1

HCC1937 = test system: HCC1937
Method: as §1

CAL-120 [11] = test system: CAL-120
Method: as §1

CAL-85-1 [12] = test system: CAL-85-1
Method: as §1

MCF-10A [13] = test system: MCF-10A
Method: as §1

Hs578T [14] = test system: Hs578T
Method: as §1

MDA-MB-453 [15] = test system: MDA-MB-453
Method: as §1

HCC1599 [16] = test system: HCC1599; remark: listed apart in the source
Method: (§2)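 DSRT, 72 h incubation, CellTox Green / CellTiter-Glo readout. Signal is normalised to DMSO and benzethonium chloride controls. Value is the normalised response at the lowest tested concentration.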

BT-474 [17] = test system: BT-474; remark: listed apart in the source
Method: as §2

HCC1143 [18] = test system: HCC1143; remark: listed apart in the source
Method: as §2

MDA-MB-468 [19] = test system: MDA-MB-468; remark: listed apart in the source
Method: as §2

MDA-MB-231 [20] = test system: MDA-MB-231; remark: listed apart in the source
Method: as §2

CAL-51 [21] = test system: CAL-51; remark: listed apart in the source
Method: as §2

DU-4475 [22] = test system: DU-4475; remark: listed apart in the source
Method: as §2

MFM-223 [23] = test system: MFM-223; remark: listed apart in the source
Method: as §2

BT-549 [24] = test system: BT-549; remark: listed apart in the source
Method: as §2

CAL-120 [25] = test system: CAL-120; remark: listed apart in the source
Method: as §2

CAL-85-1 [26] = test system: CAL-85-1; remark: listed apart in the source
Method: as §2

CAL-148 [27] = test system: CAL-148
Method: as §2

MCF-10A [28] = test system: MCF-10A; remark: listed apart in the source
Method: as §2

Hs578T [29] = test system: Hs578T; remark: listed apart in the source
Method: as §2

MDA-MB-453 [30] = test system: MDA-MB-453; remark: listed apart in the source
Method: as §2

CAL-148 [31] = test system: CAL-148; remark: listed apart in the source
Method: as §1

HDQ-P1 = test system: HDQ-P1
Method: as §1

MDA-MB-436 [32] = test system: MDA-MB-436; remark: listed apart in the source
Method: as §2

Compound | normalised response (HCC1599 [1]) | normalised response (MDA-MB-436 [2]) | normalised response (BT-474 [3]) | normalised response (HCC1143 [4]) | normalised response (MDA-MB-468 [5]) | normalised response (MDA-MB-231 [6]) | normalised response (CAL-51 [7]) | normalised response (DU-4475 [8]) | normalised response (MFM-223 [9]) | normalised response (BT-549 [10]) | normalised response (HCC1937) | normalised response (CAL-120 [11]) | normalised response (CAL-85-1 [12]) | normalised response (MCF-10A [13]) | normalised response (Hs578T [14]) | normalised response (MDA-MB-453 [15]) | normalised response (HCC1599 [16]) | normalised response (BT-474 [17]) | normalised response (HCC1143 [18]) | normalised response (MDA-MB-468 [19]) | normalised response (MDA-MB-231 [20]) | normalised response (CAL-51 [21]) | normalised response (DU-4475 [22]) | normalised response (MFM-223 [23]) | normalised response (BT-549 [24]) | normalised response (CAL-120 [25]) | normalised response (CAL-85-1 [26]) | normalised response (CAL-148 [27]) | normalised response (MCF-10A [28]) | normalised response (Hs578T [29]) | normalised response (MDA-MB-453 [30]) | normalised response (CAL-148 [31]) | normalised response (HDQ-P1) | normalised response (MDA-MB-436 [32])
Cc1sc2c(c1C)C(c1ccc(Cl)cc1)=N[C@@H](CC(=O)OC(C)(C)C)c1nnc(C)n1-2 [(+)JQ1] (10 nM) | 108% | 88.9% | 103% | 120% | 99.3% | 104% | 99.6% | 109% | 51.4% | 52.4% | 68.4% | 99.5% | 96.8% | 113% | 101% | 105% |  |  |  |  |  |  |  |  |  |  |  |  |  |  |  |  |  | 
O=C1CN2Cc3c(ccc(Cl)c3Cl)N=C2N1 [Anagrelide] (1 nM) |  |  |  |  |  |  |  |  |  |  |  |  |  |  |  |  | 100% | 100% | 108% | 87.9% | 111% | 118% | 100% | 73.6% | 88.3% | 97.8% | 106% | 103% | 97.3% | 75.2% | 100% |  |  | 
O=S(=O)(c1cccc2cnccc12)N1CCCNCC1 [Fasudil] (50 nM) | 101% | 101% | 98.9% | 101% | 84.2% | 75.5% | 115% | 102% | 82.3% | 89.6% | 103% | 104% | 105% | 105% |  | 95.5% |  |  |  |  |  |  |  |  |  |  |  |  |  |  |  | 101% | 110% | 
CC(C)Cn1cnc2c(N)nc3ccccc3c21 [Imiquimod] (2.5 nM) | 103% | 83.9% | 103% | 81.7% | 108% | 109% | 105% | 100% | 102% | 98.9% | 117% | 98.4% | 105% | 110% |  | 97.8% |  |  |  |  |  |  |  |  |  |  |  |  |  |  |  | 94.8% | 123% | 
Cc1ccc(NC(=O)c2ccc(CN3CCN(C)CC3)cc2)cc1Nc1nc(-c2cccnc2)cs1 [Masitinib] (10 nM) | 108% | 102% | 102% | 113% | 70.7% | 86.5% | 99.5% | 104% | 97.8% | 102% | 81.1% | 106% | 103% | 85.4% |  | 105% |  |  |  |  |  |  |  |  |  |  |  |  |  |  |  | 87.2% | 113% | 
CCS(=O)(=O)c1cccc(-c2cc(C(=O)NC3CCN(C)CC3)c(C)c3[nH]c4ncc(C)cc4c23)c1 [TAK-901] (1 nM) | 102% | 109% | 92.8% |  |  |  | 90.1% | 101% | 100% | 105% | 83.1% | 103% | 93.8% | 100% |  | 99.4% |  |  |  |  |  |  |  |  |  |  |  |  |  |  |  | 106% | 88.6% | 
Cn1nnc2c(C(N)=O)ncn2c1=O [Temozolomide] (10 nM) | 92.8% | 93.8% | 101% | 74.6% | 118% | 102% | 102% | 94.2% | 96.5% | 110% | 110% | 97.7% | 96.5% | 95.9% | 123% | 76.2% |  |  |  |  |  |  |  |  |  |  |  |  |  |  |  | 72.6% |  | 
COc1cc2c(NC3CCN(C(C)C)CC3)nc(C3CCCCC3)nc2cc1OCCCN1CCCC1 [UNC0638] (1 nM) |  |  |  |  |  |  |  |  |  |  |  |  |  |  |  |  | 106% | 97.2% | 114% | 84.4% |  | 112% | 98.9% | 87.8% | 102% | 101% | 107% | 97.8% |  | 105% | 96.7% |  |  | 101%
